# Reference: US11472723B2, “Method for removing heavy metals from an aqueous solution” (NEWSOUTH INNOVATIONS PTY LIMITED, priority 2016, dated 2022)
# Experiment: Ion flotation of arsenic solution in bubble column, As by ICP-MS
# Procedure: An ICP-MS (Perkin Elmer, NexION 300D with Universal cell technology) was used to determine the arsenic, mercury and lead solution concentrations.
# In a typical experiment, 0.01 M of the single chain octanoyl-cysteine surfactant was dissolved (with stirring and heating to not more than 65° C.) in a solution of arsenic (HAsO4^2−) 5 ppm containing NaOH 0.1 M (to keep the pH at about 8), which was then made up to 100 ml using Milli-Q water.
# Two samples were taken after 30, 60 and 90 minutes and the arsenic concentration of each sample was determined by ICP-MS. The upper outlet foam was also collected in a waste container using an outlet tube. […]
smiles,measurement,value
CCCCCCCCCCCC(=O)N[C@@H](CS)C(=O)O,foaming in the flotation system (in words),good foaming character
"CCCCCCCCSC[C@H](N)C(=O)O [S-octyl cysteine, reference compound]",foaming in the flotation system (in words),did not produce sufficient foam
